Results deposited as PubChem BioAssay AID504804 (Drosophila RNAi Screening Center, 2011)
Assay: 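Knock-downs shielding fly cells from apoptosis caused by DNA damage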 (primary screen). Cell system: Drosophila Kc cells. Reagents: long dsRNA against Drosophila genes, 0.5 µg dsRNA per well. Timing: 96 h (48 h knock-down, then 48 h drug). Treatment: doxorubicin 5 µg/ml for 48 h, added 48 h after dsRNA. Measured: 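Luminescent ATP counts per replicate, not normalised, reflecting viable cells after 48 h dsRNA knock-down followed by 48 h of 5 µg/ml doxorubicin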. Scale: raw ATP luminescence: higher = more viable cells, protection from doxorubicin. Rule for the call: 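Active when both duplicate wells lie at least 2 SD above the plate mean and protection is confirmed by rescreening and independent dsRNAs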.
In all, the deposit lists about 19,000 reagents; below is an unselected part of those that have a named target and a result. Over the whole deposit, 47 (0.25%) were called active. 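Signals are raw, not normalised; exact z-scores behind calls not deposited; actives needed confirmation, so some wells reaching 2 SD are inactive.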 A number with no mark means an inactive call. A plus sign joins genes that one reagent is predicted to hit.

Cpes
- raw ATP luminescence, replicate 1: 74087
- raw ATP luminescence, replicate 2: 56503

Cnb
- raw ATP luminescence, replicate 1: 53947
- raw ATP luminescence, replicate 2: 63933

PIG-A
- raw ATP luminescence, replicate 1: 53020
- raw ATP luminescence, replicate 2: 68537

CG7166
- raw ATP luminescence, replicate 1: 58793
- raw ATP luminescence, replicate 2: 67307

CG14147
- raw ATP luminescence, replicate 1: 1.01e5
- raw ATP luminescence, replicate 2: 1.00e5

CG30376
- raw ATP luminescence, replicate 1: 71627
- raw ATP luminescence, replicate 2: 59013

Ordered by “raw ATP luminescence, replicate 2” (low to high): some entries from above
CG7166
- raw ATP luminescence, replicate 1: 58793
- raw ATP luminescence, replicate 2: 67307

PIG-A
- raw ATP luminescence, replicate 1: 53020
- raw ATP luminescence, replicate 2: 68537

Next entries follow:
CG34225
- raw ATP luminescence, replicate 1: 1.07e5
- raw ATP luminescence, replicate 2: 1.05e5

CG5665
- raw ATP luminescence, replicate 1: 76080
- raw ATP luminescence, replicate 2: 68977

CG8586
- raw ATP luminescence, replicate 1: 64800
- raw ATP luminescence, replicate 2: 49963

CG17036
- raw ATP luminescence, replicate 1: 62177
- raw ATP luminescence, replicate 2: 79440

CG9458
- raw ATP luminescence, replicate 1: 55297
- raw ATP luminescence, replicate 2: 51603

CG42362 + CG42363
- raw ATP luminescence, replicate 1: 78133
- raw ATP luminescence, replicate 2: 68523
